Results are given in words; binding and its absence hold for the method and conditions named. For part of these data: In cells and extracts the contact can be indirect. Some results given as binding are weak or reduced against the parent protein; the word gives no strength. Blank lines part the entries; values can stand above or below the substance they belong to.
How the values were obtained:
[1] = target: HDAC2 (as tested in the F3H assay) (UniProt Q92769); test: fluorescent three-hybrid assay (F3H); BHK cells with a genomic LacOp array, transfected with LacI fused to a GFP binder, the GFP-tagged bait and Flag-HSF2; co-recruitment to the nuclear spot seen by confocal microscopy
[2] = target: endogenous HSF2 protein of the mouse fetal cortex (mouse (endogenous in fetal cortex)) (UniProt P38533); test: co-IP; HSF2 immunoprecipitated from lysates of the mouse fetal cortex (E12.5); immunodetection by Simple Western (ProteinSimple Jess)
[3] = target: HDAC1-GFP (in HEK 293 cells) (UniProt Q13547); test: co-IP; GFP-Trap of HDAC1-GFP from extracts of co-transfected HEK 293 cells (50 mM Hepes pH 8, 100 mM NaCl, 5 mM EDTA, Triton X-100 0.5%, glycerol 10%, VPA 1 mM); HSF2 detected with anti-Myc

Chains of the proteins cited; added tags and fusions are not shown. Lines headed by an entry give the natural chain unless they say otherwise; changes in a name come on top.
UniProt Q92769: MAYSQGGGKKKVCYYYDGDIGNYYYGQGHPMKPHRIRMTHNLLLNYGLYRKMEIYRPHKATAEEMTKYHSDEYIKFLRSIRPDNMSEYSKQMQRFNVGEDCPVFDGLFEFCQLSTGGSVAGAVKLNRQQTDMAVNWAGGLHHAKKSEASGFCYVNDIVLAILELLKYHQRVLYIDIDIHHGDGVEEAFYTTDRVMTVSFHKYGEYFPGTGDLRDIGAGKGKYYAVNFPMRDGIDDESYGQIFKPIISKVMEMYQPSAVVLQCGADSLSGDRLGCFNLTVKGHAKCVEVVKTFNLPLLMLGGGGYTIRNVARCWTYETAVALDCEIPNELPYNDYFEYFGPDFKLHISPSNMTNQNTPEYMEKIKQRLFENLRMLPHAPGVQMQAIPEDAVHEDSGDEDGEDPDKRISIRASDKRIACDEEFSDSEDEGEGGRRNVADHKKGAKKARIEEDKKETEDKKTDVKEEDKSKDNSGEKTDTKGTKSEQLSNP
UniProt P38533: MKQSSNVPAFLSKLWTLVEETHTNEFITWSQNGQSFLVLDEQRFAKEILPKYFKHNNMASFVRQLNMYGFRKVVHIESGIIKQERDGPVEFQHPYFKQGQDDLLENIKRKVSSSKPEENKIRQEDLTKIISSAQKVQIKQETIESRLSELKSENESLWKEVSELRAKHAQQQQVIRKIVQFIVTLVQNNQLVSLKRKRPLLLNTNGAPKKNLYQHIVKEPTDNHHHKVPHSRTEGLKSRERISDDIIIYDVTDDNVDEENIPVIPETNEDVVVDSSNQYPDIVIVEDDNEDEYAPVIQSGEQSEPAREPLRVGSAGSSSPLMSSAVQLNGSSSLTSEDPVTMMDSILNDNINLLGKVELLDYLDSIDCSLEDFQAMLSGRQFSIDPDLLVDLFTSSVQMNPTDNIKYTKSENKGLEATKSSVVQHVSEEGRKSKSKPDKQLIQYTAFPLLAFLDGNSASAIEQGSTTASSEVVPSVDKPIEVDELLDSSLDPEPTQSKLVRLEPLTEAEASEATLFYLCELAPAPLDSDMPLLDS
UniProt Q13547: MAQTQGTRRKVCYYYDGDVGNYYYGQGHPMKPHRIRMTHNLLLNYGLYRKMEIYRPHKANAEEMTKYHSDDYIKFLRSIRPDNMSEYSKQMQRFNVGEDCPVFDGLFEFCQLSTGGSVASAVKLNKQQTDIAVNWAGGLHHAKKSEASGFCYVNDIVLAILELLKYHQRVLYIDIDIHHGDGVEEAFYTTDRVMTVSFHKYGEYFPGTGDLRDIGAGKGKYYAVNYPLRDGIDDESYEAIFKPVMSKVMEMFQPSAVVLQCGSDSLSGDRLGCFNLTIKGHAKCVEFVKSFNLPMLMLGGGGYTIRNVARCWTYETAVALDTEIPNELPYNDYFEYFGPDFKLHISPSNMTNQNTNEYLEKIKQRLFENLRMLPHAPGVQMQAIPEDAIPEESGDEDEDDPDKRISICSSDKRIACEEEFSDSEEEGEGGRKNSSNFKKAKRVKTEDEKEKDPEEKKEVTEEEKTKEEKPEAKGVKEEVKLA
UniProt Q03933: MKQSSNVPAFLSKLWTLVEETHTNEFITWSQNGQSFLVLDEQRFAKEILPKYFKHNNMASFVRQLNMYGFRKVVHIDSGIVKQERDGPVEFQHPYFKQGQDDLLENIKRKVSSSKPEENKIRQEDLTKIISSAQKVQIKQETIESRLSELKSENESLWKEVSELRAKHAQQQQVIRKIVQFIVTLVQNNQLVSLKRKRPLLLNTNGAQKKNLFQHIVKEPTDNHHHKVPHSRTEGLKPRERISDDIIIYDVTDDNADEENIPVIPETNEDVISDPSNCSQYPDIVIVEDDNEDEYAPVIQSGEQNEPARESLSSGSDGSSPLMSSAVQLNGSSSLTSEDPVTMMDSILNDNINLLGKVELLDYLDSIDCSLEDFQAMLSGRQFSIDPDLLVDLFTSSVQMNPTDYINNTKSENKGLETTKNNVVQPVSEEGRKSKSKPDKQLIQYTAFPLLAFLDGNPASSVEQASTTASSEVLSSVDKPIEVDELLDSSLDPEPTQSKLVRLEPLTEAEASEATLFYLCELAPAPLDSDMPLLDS
UniProt O09106: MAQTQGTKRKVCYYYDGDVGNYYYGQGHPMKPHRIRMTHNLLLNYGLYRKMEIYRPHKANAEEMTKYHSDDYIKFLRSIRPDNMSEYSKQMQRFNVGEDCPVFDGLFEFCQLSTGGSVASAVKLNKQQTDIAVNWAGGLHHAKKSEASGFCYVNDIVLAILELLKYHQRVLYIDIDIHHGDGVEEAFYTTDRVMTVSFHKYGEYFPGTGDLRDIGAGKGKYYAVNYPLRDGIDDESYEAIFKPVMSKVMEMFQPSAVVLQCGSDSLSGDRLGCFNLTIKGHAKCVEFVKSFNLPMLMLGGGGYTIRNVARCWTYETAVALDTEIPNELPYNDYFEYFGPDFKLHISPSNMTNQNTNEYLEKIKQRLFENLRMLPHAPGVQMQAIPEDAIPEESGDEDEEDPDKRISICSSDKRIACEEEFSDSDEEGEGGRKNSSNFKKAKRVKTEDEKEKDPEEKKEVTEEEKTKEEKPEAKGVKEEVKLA

binding [1]: no binding
Substance: Flag-HSF2 (in BHK cells) (from UniProt Q03933 1-536)

binding [2]: binds
Substance: lysine-deacetylase HDAC1, mouse (from UniProt O09106 1-482) (enzyme)

binding [3]: binds
Substance: HSF2-Myc (from UniProt Q03933 1-536)

Reference: paper PMC12150047
